Measurements: patent US10815460B2, “Three-dimensional differentiation of epiblast spheroids to kidney organoids models stage-specific epithelial physiology, morphogenesis, and disease” (THE BRIGHAM AND WOMEN'S HOSPITAL, INC., priority 2015, dated 2020)
Entries after “also recorded” stand apart in the source; their conditions may differ.

Experiments:
epiblast spheroids = assay: Permeability assay with fluorescent compounds in epiblast spheroids; assay type: cell-based, human; details: for accumulation in epiblast spheroid cavities: added to the culture media for 2-4 hours; for accumulation in lumens of PODXL−/− hESC spheroids: added to the media, four hours
tubular organoids = assay: Transport of fluorescent cargoes in tubular organoids; assay type: cell-based, human; details: for accumulation and retention in kidney organoid tubules: pulse incubation followed by washout chase
Method: (§1) To test permeability, media was supplemented with 20 mM HEPES plus Lucifer Yellow™ carbohydrazide potassium salt (Invitrogen, 38 μM) and Rhodamine-8 isothiocyanate dextran (Sigma, 0.5 μM), and imaged by confocal microscopy. For microinjection, 5 μM rhodamine-conjugated dextran solution in mTeSR1 was diluted 1:1 with Phenol Red Solution (0.5%, Sigma) for visualization. 2 nl was microinjected via a pulled glass capillary microneedle on a Nanoject-2 micromanipulator, and monitored in real-time by wide-field epifluorescence. For TEER, 50,000 hPSCs were plated on 24-well transwell plates (Corning) pre-coated with dilute […]™. The media was gently exchanged for 10 days until cells were completely confluent. TEER was measured using an EVOM 2™ device (World Precision Instruments).
as §1, with “Rhodamine-B” for “Rhodamine-8”, “0.5” for “0.5 μM),”, “5” for “5 μM”

For `NNC(=O)NN1C(=O)c2cc(S(=O)(=O)[O-])cc3c(N)c(S(=O)(=O)[O-])cc(c23)C1=O.[K+].[K+]` [Lucifer yellow, Lucifer Yellow™ carbohydrazide potassium salt], the “accumulation in epiblast spheroid cavities” value (epiblast spheroids) was “gradually accumulated within cavities” and the “accumulation in lumens of PODXL−/− hESC spheroids” value (epiblast spheroids) was “accumulated within these small lumens”.
With Rhodamine-B isothiocyanate dextran [RD] the “distribution relative to LRP2/megalin tubular segments” value (tubular organoids; fixation and co-localization) was “enriched in tubular segments lacking LRP2/megalin”, the “accumulation and retention in kidney organoid tubules” value (tubular organoids) was “remained associated during a 24-hour washout chase” and the “accumulation in epiblast spheroid cavities” value (epiblast spheroids) was “excluded from lumens”. The “accumulation in lumens of PODXL−/− hESC spheroids” value (epiblast spheroids) was “excluded from lumens” and the “persistence in cavity after microinjection” value (epiblast spheroids; microinjected into the spheroid cavity) was “remained detectable for hours”.
fluorescein methotrexate [MTX] was tested, and the “accumulation and retention in kidney organoid tubules” value (tubular organoids) was “accumulated brightly in kidney tubules” and the “accumulation in epiblast spheroid cavities” value (epiblast spheroids) was “not similarly enriched in hPSC spheroid cavities; also recorded: did not accumulate in hPSC lumens”.
